Out of some 300,000 compounds screened, about 3,700 (1.2%) were called active. The inconclusive results got no clear call from the source; some entries with a clear call stand among them for comparison. Calls come from the whole dose curve; tested in HEK293 cells. A potency beside an inconclusive call is a rough fit, not a confirmed value.
assay: qHTS for Inhibitors of binding or entry into cells for Lassa Virus; conditions: Lassa virus pseudotype entry inhibition, cell reporter; series mostly up to 37.9 µM; note: nearly all actives have a fitted effect of over 50% in size
Potency is the fitted concentration of half-maximal effect.

Structure (SMILES)	Potency
Cc1cc(Cl)ccc1NC(=O)CN1CCCC1	inconclusive: 12.6 µM [activator, single point]
O=C1CSC(c2ccccc2)N1CC(O)c1ccc([N+](=O)[O-])cc1 (configuration not stated)	inactive
CCCn1c(=N)n(CC(O)COc2ccc(C)cc2)c2ccccc21 (configuration not stated)	inconclusive: 2.51 µM [inhibitor, partial curve, poor fit]
CC(Oc1ccc(F)cc1)C(=O)N(Cc1ccccc1)c1c(N)n(Cc2ccccc2)c(=O)[nH]c1=O (configuration not stated)	inconclusive: 0.794 µM [inhibitor, single point]
COc1ccc(S(=O)(=O)Oc2ccc3c(c2)O/C(=C\c2cccnc2)C3=O)cc1	inactive
COc1cccc(N2CCN(c3c(C#N)c(C(F)(F)F)nn3C)CC2)c1	inconclusive: 12.6 µM [inhibitor, single point]
CC1(C)C/C(=N\NC(=S)Nc2ccccc2F)c2cc(O)ccc2O1	inconclusive: 20 µM [inhibitor, single point]
Cc1cc(C(=O)NC2CCCc3ccccc32)no1 (configuration not stated)	inactive
COc1ccc(C(=O)C2CCN(C(=O)Nc3ccc(C)cc3)CC2)cc1	inconclusive: 6.31 µM [inhibitor, single point]
COn1c(SCc2ccccc2)nc2ccccc2c1=O	inconclusive: 10.3 µM [inhibitor, partial curve, poor fit]
Nc1c(-c2nc(-c3ccccc3)cs2)c2ccccn2c1C(=O)c1ccc2c(c1)OCO2	inconclusive: 3.16 µM [inhibitor, partial curve, poor fit]
O=C(N/N=C/c1cc(Br)ccc1O)c1ccccc1Cl	inconclusive: 14.1 µM [inhibitor, single point]
CCCCCn1c(=O)c2ccccc2n2c(CCl)nnc12	inactive
O=C(NCCCN1CCN(c2ccccc2)CC1)c1nnc(Cc2ccc(F)cc2)o1	inactive
Cc1ccccc1CC1(CO)CCCN(C(=O)c2ccc(F)cc2)C1 (configuration not stated)	inactive
COc1ccc(CN2CCN(S(=O)(=O)c3ccc(NC(C)=O)cc3)CC2)cc1OC	inconclusive: 29.1 µM [inhibitor, single point]
CCOC(=O)c1ccccc1Nc1cc(C)nc2nc(-c3ccco3)nn12	inconclusive: 22.4 µM [inhibitor, single point]
COc1ccc(OC)c(NC(=O)CN(C)CC(=O)Nc2ccccc2Br)c1	inconclusive: 17.8 µM [inhibitor, single point]
CC(C)(C)NC(=S)NNC(=O)c1ccccc1Cl	inactive
Cc1nn(C)c(C)c1C1C(C#N)=C(N)OC2=C1C(=O)CCC2 (configuration not stated)	inconclusive: 31.6 µM [activator, single point]
Cc1csc(NC(=O)c2ccc(-c3ccc(Cl)cc3Cl)o2)n1	inconclusive: 35.5 µM [inhibitor, single point]
COc1cccc(CNc2ncc(-c3ccc(Br)cc3)n2C)c1	inactive
Cc1nn(C)c(=O)n1-c1ccc(OCc2ccccc2)cc1	inactive
CCOCN(C(=O)Cn1c(CO)nc2ccccc21)c1c(C)cccc1CC	inconclusive: 11.6 µM [inhibitor, partial curve, poor fit]

Sorted by heavy-atom count (low to high): 3 of the compounds above.
Structure (SMILES)	Potency
Cc1nn(C)c(=O)n1-c1ccc(OCc2ccccc2)cc1	inactive
COc1cccc(CNc2ncc(-c3ccc(Br)cc3)n2C)c1	inactive
COc1ccc(S(=O)(=O)Oc2ccc3c(c2)O/C(=C\c2cccnc2)C3=O)cc1	inactive

Continued:

Structure (SMILES)	Potency
COc1cccc2sc(N3CCN(C(=O)CS(=O)(=O)c4ccc(Cl)cc4)CC3)nc12	inconclusive: 35.5 µM [inhibitor, single point]
Cc1ccc(N(C)C(=O)n2cnc3ccccc32)cc1	inactive
CCOC(=O)c1cc(-c2ccccc2)sc1NC(=O)C(C)Sc1nnc(N)s1 (configuration not stated)	inconclusive: 5.8 µM [inhibitor, full curve, poor fit]
c1ccc(CCc2nc(-c3ccccc3)no2)cc1	inconclusive: 3.55 µM [activator, single point]
CSC(=Nc1ccccc1)c1c(O)n(C)c(=O)n(C)c1=O	inactive
Cc1ccc(S(=O)(=O)C2(S(=O)(=O)c3ccc(C)cc3)CCCC2)cc1	inconclusive: 1.26 µM [inhibitor, full curve]
O=C(N/N=C/c1cccc(Br)c1)c1ccc(Cn2cc(Br)cn2)o1	inconclusive: 3.16 µM [inhibitor, single point]
O=C(/C=C/c1c(Cl)nc2ccccn12)N1CCCCC1	inactive
Cn1nnnc1SCCNCc1ccccc1OCc1ccc(Cl)cc1Cl	inactive
CC(=O)Nc1ccc(S(=O)(=O)N2CCN(S(=O)(=O)N3CCCCCC3)CC2)cc1	inconclusive: 1.26 µM [activator, single point]
O=[N+]([O-])c1cc2ccccc2nc1-c1ccccc1	inconclusive: 35.5 µM [inhibitor, single point]
O=S(=O)(Nc1ccccn1)c1ccc(C2CCCCC2)cc1	inactive
CCOC(=O)c1cnc(-n2nc(C)cc2C)nc1NCCO	inactive
Cc1cccc(CS(=O)(=O)c2ncc(Cl)c(C(=O)Nc3nc4ccc(F)cc4s3)n2)c1	inconclusive: 17.8 µM [inhibitor, single point]
CCc1nccc2c1nc(-c1nonc1N)n2CC	active: 25 µM
CCCCCCCCCCCCCCCC(=O)OC(CC(=O)O)C[N+](C)(C)C (configuration not stated)	inconclusive: 29.1 µM [inhibitor, single point]
CC1CC(C)CN(c2oc(Cc3ccccc3)nc2C#N)C1 (configuration not stated)	inconclusive: 23.1 µM [inhibitor, single point]
CSC(=NC#N)N1CCN(c2ccccc2)CC1	inactive
CCCc1nnc(SCC(=O)N2CCCC(C)C2)n1CCOC (configuration not stated)	inconclusive: 31.6 µM [activator, single point]
Cc1ccc(S(=O)(=O)c2nnn3c2nc(NCc2cccs2)c2sccc23)cc1C	inconclusive: 11.2 µM [inhibitor, single point]
O=C(CC12CC3CC(CC(Br)(C3)C1)C2)NC1=NCCS1	inconclusive: 1.26 µM [inhibitor, single point]
CCOC(=O)c1c(-c2ccccc2)oc2ccc(OC(C)=O)cc12	inconclusive: 16.4 µM [inhibitor, partial curve, poor fit]
Cc1cc(C)cc(NC(=O)C2CCN(c3cc(C)nc4c(-c5ccc(Cl)cc5)c(C)nn34)CC2)c1	inactive
